Publication PMC7570921 (Molecules, 2020)
Strings that start with PEPTIDE1 are HELM notation: dots part the residues, brackets hold end groups and non-standard residues.

Test: general procedure: peptide synthesis; HATU
Conditions: conjugation step

Row | Substance | conjugation yield [%]
1 | DBCO-GAGRRAAG | 55.8
2 | PEPTIDE1{[DBCO].G.A.G.R.R.A.A.G.[DOX]}$$$$V2.0 | 60.5
